The reference is the same well before dosing, and untreated signal decays as well.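 Fibroblast labels denote human fibroblasts, mainly primary ones from uterus (C12385, HUF), lung (H6013), bone (Hs27A), adrenal (HADF) and skin (WS1), plus mammary HMF and breast cancer-associated Hs343T. Cancer cells are basal-like or mesenchymal-like triple-negative breast cancer lines. A hit is a response shift exceeding 3x replicate standard deviation. The tissue of the other fibroblasts is not given here.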
Test system: BT20
Experiment: relative JC-1 red fluorescence (viability) vs pre-drug, coculture with fibroblast (fraction); higher = more viable cancer cells
Settings: 10 µM
Protocol: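 JC-1 labelled TNBC cells cocultured 1:1 (1,500 cells each) with CellTrace Violet stained primary or stromal fibroblasts in 384-well plates in FluoroBrite medium, treated with one of 42 anticancer drugs at 0.1, 1, 10 or 100 uM. JC-1 red fluorescence (mitochondrial integrity in cancer cells only) was read by plate reader every 8 h for 72 h. Values are normalised to each well's pre-drug value. The stock of one drug was tenfold lower, so its dose labels may be too high.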

O=C(CCCCCCC(=O)Nc1ccccc1)NO [Vorinostat]
relative JC-1 red fluorescence
Settings	8 h	16 h	24 h	32 h	40 h	48 h	56 h	64 h	72 h
coculture fibroblast: C12385	0.915	0.818	0.776	0.678	0.581	0.535	0.5	0.468	0.445
coculture fibroblast: H6013	0.9399	0.842	0.749	0.677	0.64	0.629	0.636	0.627	0.6393
coculture fibroblast: H6019	0.872	0.79	0.778	0.72	0.656	0.622	0.592	0.584	0.586
coculture fibroblast: H6076	0.928	0.875	0.781	0.724	0.648	0.614	0.602	0.598	0.569
coculture fibroblast: H6231	0.803	0.911	0.756	0.671	0.617	0.567	0.538	0.508	0.484
coculture fibroblast: HADF	0.842	0.8749	0.83	0.763	0.723	0.685	0.676	0.673	0.638
coculture fibroblast: HCFa	0.918	0.85	0.824	0.698	0.593	0.5585	0.5616	0.55778	0.557
coculture fibroblast: HCPF	0.876	0.8788	0.781	0.702	0.64	0.58	0.535	0.521	0.486
coculture fibroblast: HHSteC	0.9141	0.835	0.8129	0.7056	0.66	0.615	0.599	0.585	0.57
coculture fibroblast: HMF	0.874	0.896	0.7631	0.6703	0.548	0.471	0.421	0.385	0.353
coculture fibroblast: HPFa	0.945	0.8331	0.79	0.6897	0.636	0.581	0.5517	0.535	0.516
coculture fibroblast: HUF	0.9152	0.791	0.734	0.617	0.528	0.49	0.473	0.464	0.455
coculture fibroblast: Hs5	0.716	0.927	0.7935	0.721	0.642	0.589	0.553	0.53	0.515
coculture fibroblast: Hs27A	0.756	0.835	0.826	0.944	0.80935	0.748	0.823	0.727	0.78
coculture fibroblast: Hs343T	0.942	0.835	0.729	0.667	0.61	0.573	0.526	0.513	0.477
coculture fibroblast: WS1	0.8496	0.747	0.686	0.6	0.517	0.46	0.411	0.381	0.364

Source: the supplement of paper PMC6078165
